# Measured data: PubChem BioAssay AID720505 (Drosophila RNAi Screening Center, 2013)
# Screen: 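Knock-downs that reduce calcium influx once internal stores are emptied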 (primary screen)
# System: Drosophila S2R+ cells
# Reagents: long dsRNA against Drosophila genes
# Treatment: thapsigargin (2 µM) in calcium-free buffer to empty internal stores, then 2 mM calcium added back
# Measured: 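Fluo-4 signal in 384-well plates read on a FLIPR after thapsigargin (2 µM, calcium-free) store depletion and 2 mM calcium add-back; unnormalised mean endpoint per well; screen run twice, selected wells retested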
# Scale: calcium signal and retest calcium signal: higher = more calcium entry after store depletion
# Call rule: 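About 1500 genes called as lowering calcium entry, by varying amounts, judged against per-plate control wells with STIM1 as positive and Rho1 as negative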
# Calls: active = called as lowering calcium entry; inactive = not called
# The screen tested about 20,000 reagents; this is a random part of those that have a named target and a result. Over the whole deposit, about 2,100 (10%) got an active call. 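Raw plate signals without normalisation; calls rest on control-based scores that were not deposited; replicate 2 separates called from uncalled poorly.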 Unmarked entries are inactive. Reagents against one gene are numbered here. A plus sign joins genes that one reagent is predicted to hit. Not stated in the record: the amount of reagent, the time to read-out.
gene knocked down,reagent,"calcium signal, replicate 1","calcium signal, replicate 2","retest calcium signal, replicate 1","retest calcium signal, replicate 2"
CG10163,1,107,96,,
CG7568,1,148,135,,
Con,1,92.1,91.8,,
VGlut,1,200,153,7162,168
VGlut,2,151,68.2,,
CG5346,1,161,199,,
CG43867,1,105,126,,
CG43867,2,128,131,,
CG43867,3,140,127,110,117
CG43867,4,82.4,167,,
Pstk + CG14210 + Tim9b,1,73.1 (active),228,,
E(spl)m3-HLH,1,177,134,,
E(spl)m3-HLH,2,92.3,82.2,,
CG14191,1,117,126,,
RpL35,1,131,96.9,,
CG5096,1,150,142,,

The list goes on (3 carried over from the part before).
gene knocked down,reagent,"calcium signal, replicate 1","calcium signal, replicate 2","retest calcium signal, replicate 1","retest calcium signal, replicate 2"
CG14191,1,117,126,,
RpL35,1,131,96.9,,
CG5096,1,150,142,,
CG32457,1,6332,154,,
CG32457,2,148,113,,
CG31345,1,176,73.5,,
CG31345,2,203,76.4,,
Coq3,1,102,75.5,,
CG7896,1,116,110,,
pix,1,55 (active),41,,
cocoon,1,63.8,135,,
CG46385,1,178,97.3,,
CG46385,2,99.3,155,,
Trissin,1,113,93.5,,
CG12581,1,156,119,,
CG12581,2,123,158,,
CG8661,1,88.4,103,,
Pop2,1,120,103,,
galla-2,1,72.6,73.8,6250,82.7
galla-2,2,97.5,230,,
CG18649,1,86.1,134,,
